# Measurements as given in article PMC7140021.
# Protein sequences, listed by entry. Tags and fused reporters are not part of them. Residues count along the entry.
# UniProt P16581, 22-610: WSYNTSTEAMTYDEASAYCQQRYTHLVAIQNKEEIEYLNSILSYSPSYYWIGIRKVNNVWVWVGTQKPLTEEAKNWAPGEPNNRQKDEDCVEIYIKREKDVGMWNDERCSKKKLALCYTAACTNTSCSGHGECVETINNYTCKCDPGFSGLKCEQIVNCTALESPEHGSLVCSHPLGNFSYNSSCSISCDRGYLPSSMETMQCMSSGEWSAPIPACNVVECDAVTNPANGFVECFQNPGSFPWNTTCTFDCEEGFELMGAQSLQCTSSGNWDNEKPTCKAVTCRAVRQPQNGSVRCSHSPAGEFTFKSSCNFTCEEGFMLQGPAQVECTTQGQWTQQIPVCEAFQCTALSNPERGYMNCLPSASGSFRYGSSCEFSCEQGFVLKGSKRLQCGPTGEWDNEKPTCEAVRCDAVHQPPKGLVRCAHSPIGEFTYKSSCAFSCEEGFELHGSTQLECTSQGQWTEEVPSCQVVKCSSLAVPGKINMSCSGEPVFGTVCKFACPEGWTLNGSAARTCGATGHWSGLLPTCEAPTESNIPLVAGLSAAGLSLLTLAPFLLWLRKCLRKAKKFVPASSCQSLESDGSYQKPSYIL
# Target: E-selectin (human, on breast tumor vessels) (human) (UniProt P16581)
# Assay: fluorescence staining of tissue sections with antibody blocking
# Conditions: 50 nM Cy3-ESTA, binding abolished by anti-E-selectin mAb, not by normal IgG, monothiophosphate substitution at the adenines marked by asterisks (A*), tissue sections fixed with 4% paraformaldehyde, pH and temperature not stated, protein on the cell surface, label: Cy3, single-stranded DNA
sequence,measurement,value
CGCTCGGATCGATAAGCTTCGATCCCACTCTCCCGTTCACTTCTCCTCACGTCACGGATCCTCTAGAGCACTG [ESTA (anti-E-selectin thioaptamer)],binding result,binds

# Construct, isoform or probe ends are uncertain for at least one entry. Where cells or extracts were used, other partners may take part.
